# Data: paper PMC3247260
# Protein sequences, listed by entry. Tags and fused reporters are not part of them. Residues count along the entry.
# UniProt P61956: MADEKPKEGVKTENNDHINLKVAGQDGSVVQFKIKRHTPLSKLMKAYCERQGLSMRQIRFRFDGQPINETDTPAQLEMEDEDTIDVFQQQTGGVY
# UniProt P63165, residues 1-97: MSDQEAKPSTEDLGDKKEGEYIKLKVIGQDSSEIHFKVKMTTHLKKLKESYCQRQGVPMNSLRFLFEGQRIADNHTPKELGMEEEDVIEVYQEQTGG
# These are yes or no findings as the source states them, for the method shown. For part of these data: In cells and extracts the contact can be indirect. For part of these data: Sequences can lack the tags named with a protein.
# Columns and labels:
# [1] = target: T1, FLAG-tagged USP13-C345A (catalytically inactive form) (human) (UniProt Q92995); test: co-IP; HEK 293T cells transfected with FLAG-tagged USP13; IP: anti-FLAG antibody; IB: anti-Ub, anti-ISG15, anti-SUMO1 and anti-SUMO2 antibodies; 50% lysates as input
# T1 sequence: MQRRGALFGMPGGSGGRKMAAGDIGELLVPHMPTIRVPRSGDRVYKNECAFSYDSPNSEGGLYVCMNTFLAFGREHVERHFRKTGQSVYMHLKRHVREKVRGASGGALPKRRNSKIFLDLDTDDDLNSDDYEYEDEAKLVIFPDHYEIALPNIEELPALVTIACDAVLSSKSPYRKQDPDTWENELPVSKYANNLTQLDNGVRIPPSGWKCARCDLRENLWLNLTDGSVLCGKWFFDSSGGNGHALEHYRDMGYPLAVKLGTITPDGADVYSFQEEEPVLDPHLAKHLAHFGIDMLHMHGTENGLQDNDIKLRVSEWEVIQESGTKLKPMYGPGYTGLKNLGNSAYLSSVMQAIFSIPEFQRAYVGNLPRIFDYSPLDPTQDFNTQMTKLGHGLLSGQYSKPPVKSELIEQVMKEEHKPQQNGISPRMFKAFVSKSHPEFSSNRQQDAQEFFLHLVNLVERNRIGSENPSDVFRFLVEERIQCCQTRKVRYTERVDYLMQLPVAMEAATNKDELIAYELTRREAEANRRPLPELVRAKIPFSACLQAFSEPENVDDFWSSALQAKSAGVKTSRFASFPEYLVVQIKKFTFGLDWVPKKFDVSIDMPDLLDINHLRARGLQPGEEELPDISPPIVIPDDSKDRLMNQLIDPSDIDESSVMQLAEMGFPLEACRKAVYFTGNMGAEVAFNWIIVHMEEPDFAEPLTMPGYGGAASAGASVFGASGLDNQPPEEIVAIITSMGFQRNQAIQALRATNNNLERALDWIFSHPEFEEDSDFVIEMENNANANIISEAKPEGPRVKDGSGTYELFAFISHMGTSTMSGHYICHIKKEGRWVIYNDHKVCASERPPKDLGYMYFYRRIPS
# [2] = target: GST-fused SUMO2 (UniProt P61956); test: pull-down; GST-fused Ub, ISG15, SUMO1 or SUMO2 loaded on glutathione agarose, USP13 or USP13-UBA12 (~100 µM) added; 1-hr incubation, washed three times, eluted by GSH buffer; SDS-PAGE with Coomassie blue staining; both purified
# [3] = target: GST-fused SUMO1 (UniProt P63165); test: as above
Substance,binding [1],binding [2],binding [3]
SUMO1 of HEK 293T cells (from UniProt P63165 1-97),no binding,–,–
"tandem UBA domains of USP13 (USP13-UBA12, residues 652-776) (from UniProt Q92995 652-776) (domain or fragment)",–,no binding (tested: ~100 µM USP13-UBA12),no binding (tested: ~100 µM USP13-UBA12)
